In test [1] the target is T1, soluble murine CD25 (His-tagged recombinant mouse IL-2Rα/CD25, R&D Systems) (mouse) (UniProt P01590).
T1 sequence (looked up): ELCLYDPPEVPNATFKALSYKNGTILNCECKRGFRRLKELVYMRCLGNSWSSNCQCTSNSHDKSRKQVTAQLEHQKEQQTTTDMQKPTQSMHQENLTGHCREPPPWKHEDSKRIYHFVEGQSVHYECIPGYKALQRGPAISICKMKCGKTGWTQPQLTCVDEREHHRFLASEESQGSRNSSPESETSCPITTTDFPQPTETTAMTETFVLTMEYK
Description: yeast surface display, 5 or 50 nM soluble CD25.

The target in test [2] is T1, soluble murine CD25 (His-tagged recombinant mouse IL-2Rα/CD25, R&D Systems) (mouse). Nature of the test: yeast surface display, soluble CD25.

These are yes or no findings as the source states them, for the method shown. Some entries that bind do so weakly or less than the wild type. Tags and fused reporters may be left off the sequences shown.

Experimental findings from US20150132254A1 (MIT, published 2015) are described below.

B1: mouse IL-2 H82E (yeast-displayed) (ligand)
chain: APTSSSTSSSTAEAQQQQQQQQQQQQHLEQLLMDLQELLSRMENYRNLKLPRMLTFKFYLPKQATELKDLQCLEDELGPLREVLDLTQSKSFQLEDAENFISNIRVTVVKLKGSDNTFECQFDDESATVVDFLRRWIAFCQSIISTSPQ
B1: the binding result in test [1] is reported as “binds”.

B2: mouse IL-2 Q121G (yeast-displayed) (ligand)
chain: APTSSSTSSSTAEAQQQQQQQQQQQQHLEQLLMDLQELLSRMENYRNLKLPRMLTFKFYLPKQATELKDLQCLEDELGPLRHVLDLTQSKSFQLEDAENFISNIRVTVVKLKGSDNTFECGFDDESATVVDFLRRWIAFCQSIISTSPQ
Take B2: the binding entry in test [1] was “binds”.

B3: mouse IL-2 Q121R (yeast-displayed) (ligand)
chain: APTSSSTSSSTAEAQQQQQQQQQQQQHLEQLLMDLQELLSRMENYRNLKLPRMLTFKFYLPKQATELKDLQCLEDELGPLRHVLDLTQSKSFQLEDAENFISNIRVTVVKLKGSDNTFECRFDDESATVVDFLRRWIAFCQSIISTSPQ
For B3, the binding entry in test [1] was “binds”.

B4: mouse IL-2 Q121A (yeast-displayed) (ligand)
chain: APTSSSTSSSTAEAQQQQQQQQQQQQHLEQLLMDLQELLSRMENYRNLKLPRMLTFKFYLPKQATELKDLQCLEDELGPLRHVLDLTQSKSFQLEDAENFISNIRVTVVKLKGSDNTFECAFDDESATVVDFLRRWIAFCQSIISTSPQ
Regarding B4, the binding entry in test [1] is listed as “binds”.

B5: S126T IL-2 (mouse, yeast-displayed) (ligand)
chain: APTSSSTSSSTAEAQQQQQQQQQQQQHLEQLLMDLQELLSRMENYRNLKLPRMLTFKFYLPKQATELKDLQCLEDELGPLRHVLDLTQSKSFQLEDAENFISNIRVTVVKLKGSDNTFECQFDDETATVVDFLRRWIAFCQSIISTSPQ
Regarding B5, the binding result in test [2] is “binds”.

B6: mouse IL-2 H82S (yeast-displayed) (ligand)
chain: APTSSSTSSSTAEAQQQQQQQQQQQQHLEQLLMDLQELLSRMENYRNLKLPRMLTFKFYLPKQATELKDLQCLEDELGPLRSVLDLTQSKSFQLEDAENFISNIRVTVVKLKGSDNTFECQFDDESATVVDFLRRWIAFCQSIISTSPQ
Regarding B6, the binding entry in test [1] was “binds”.

B7: mouse IL-2 Q121S (yeast-displayed) (ligand)
chain: APTSSSTSSSTAEAQQQQQQQQQQQQHLEQLLMDLQELLSRMENYRNLKLPRMLTFKFYLPKQATELKDLQCLEDELGPLRHVLDLTQSKSFQLEDAENFISNIRVTVVKLKGSDNTFECSFDDESATVVDFLRRWIAFCQSIISTSPQ
For the molecule B7, the binding entry in test [1] is reported as “binds”.

B8: mouse IL-2 H82G (yeast-displayed) (ligand)
chain: APTSSSTSSSTAEAQQQQQQQQQQQQHLEQLLMDLQELLSRMENYRNLKLPRMLTFKFYLPKQATELKDLQCLEDELGPLRGVLDLTQSKSFQLEDAENFISNIRVTVVKLKGSDNTFECQFDDESATVVDFLRRWIAFCQSIISTSPQ
As for B8, the binding result in test [1] was “binds”.

B9: mouse IL-2 H82A (yeast-displayed) (ligand)
chain: APTSSSTSSSTAEAQQQQQQQQQQQQHLEQLLMDLQELLSRMENYRNLKLPRMLTFKFYLPKQATELKDLQCLEDELGPLRAVLDLTQSKSFQLEDAENFISNIRVTVVKLKGSDNTFECQFDDESATVVDFLRRWIAFCQSIISTSPQ
With B9, the binding result in test [1] was “binds”.

B10: S126P IL-2 (mouse, yeast-displayed) (ligand)
chain: APTSSSTSSSTAEAQQQQQQQQQQQQHLEQLLMDLQELLSRMENYRNLKLPRMLTFKFYLPKQATELKDLQCLEDELGPLRHVLDLTQSKSFQLEDAENFISNIRVTVVKLKGSDNTFECQFDDEPATVVDFLRRWIAFCQSIISTSPQ
In the case of B10, the binding entry in test [2] is “binds”.
